# According to the supplement of paper PMC12819154, “High-throughput peptide-centric local stability assay extends protein–ligand identification to membrane proteins, tissues and bacteria” (Nature Structural & Molecular Biology, 2025):
# By UniProt entry, the sequences of proteins in these tests, tags left out. Where a name states a change or a piece, a line headed by the entry shows the natural chain unless it says otherwise.
# UniProt P0ACL0: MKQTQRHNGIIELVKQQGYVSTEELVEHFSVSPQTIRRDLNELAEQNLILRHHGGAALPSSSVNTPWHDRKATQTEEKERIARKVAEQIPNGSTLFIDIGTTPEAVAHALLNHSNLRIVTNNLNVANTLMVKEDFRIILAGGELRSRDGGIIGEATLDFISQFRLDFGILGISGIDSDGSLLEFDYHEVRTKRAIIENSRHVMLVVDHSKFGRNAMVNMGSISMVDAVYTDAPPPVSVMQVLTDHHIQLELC
# UniProt P0A9U1: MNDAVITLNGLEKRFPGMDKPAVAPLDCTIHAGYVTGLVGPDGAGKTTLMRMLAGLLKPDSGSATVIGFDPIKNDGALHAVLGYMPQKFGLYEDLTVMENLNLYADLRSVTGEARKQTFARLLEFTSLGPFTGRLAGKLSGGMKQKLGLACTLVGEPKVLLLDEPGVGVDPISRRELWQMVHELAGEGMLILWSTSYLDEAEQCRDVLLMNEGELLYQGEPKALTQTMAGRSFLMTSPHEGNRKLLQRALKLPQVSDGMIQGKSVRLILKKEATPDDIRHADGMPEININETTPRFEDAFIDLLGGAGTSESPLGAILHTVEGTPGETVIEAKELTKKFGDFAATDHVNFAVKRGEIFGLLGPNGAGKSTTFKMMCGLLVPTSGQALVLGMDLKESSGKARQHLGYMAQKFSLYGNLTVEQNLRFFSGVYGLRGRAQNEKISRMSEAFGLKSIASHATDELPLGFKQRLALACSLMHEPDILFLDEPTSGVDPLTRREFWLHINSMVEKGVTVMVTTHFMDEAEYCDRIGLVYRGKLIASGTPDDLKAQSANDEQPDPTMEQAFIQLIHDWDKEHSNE
# UniProt P0AA39: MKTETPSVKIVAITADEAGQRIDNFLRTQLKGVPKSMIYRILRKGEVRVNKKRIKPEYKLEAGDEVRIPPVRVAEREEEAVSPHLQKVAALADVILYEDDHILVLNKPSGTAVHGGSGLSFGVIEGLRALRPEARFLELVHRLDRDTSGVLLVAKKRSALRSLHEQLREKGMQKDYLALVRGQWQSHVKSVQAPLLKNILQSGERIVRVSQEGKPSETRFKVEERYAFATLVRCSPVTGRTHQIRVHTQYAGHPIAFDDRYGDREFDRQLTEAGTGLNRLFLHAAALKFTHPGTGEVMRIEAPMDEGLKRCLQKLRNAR
# UniProt P0A9P6: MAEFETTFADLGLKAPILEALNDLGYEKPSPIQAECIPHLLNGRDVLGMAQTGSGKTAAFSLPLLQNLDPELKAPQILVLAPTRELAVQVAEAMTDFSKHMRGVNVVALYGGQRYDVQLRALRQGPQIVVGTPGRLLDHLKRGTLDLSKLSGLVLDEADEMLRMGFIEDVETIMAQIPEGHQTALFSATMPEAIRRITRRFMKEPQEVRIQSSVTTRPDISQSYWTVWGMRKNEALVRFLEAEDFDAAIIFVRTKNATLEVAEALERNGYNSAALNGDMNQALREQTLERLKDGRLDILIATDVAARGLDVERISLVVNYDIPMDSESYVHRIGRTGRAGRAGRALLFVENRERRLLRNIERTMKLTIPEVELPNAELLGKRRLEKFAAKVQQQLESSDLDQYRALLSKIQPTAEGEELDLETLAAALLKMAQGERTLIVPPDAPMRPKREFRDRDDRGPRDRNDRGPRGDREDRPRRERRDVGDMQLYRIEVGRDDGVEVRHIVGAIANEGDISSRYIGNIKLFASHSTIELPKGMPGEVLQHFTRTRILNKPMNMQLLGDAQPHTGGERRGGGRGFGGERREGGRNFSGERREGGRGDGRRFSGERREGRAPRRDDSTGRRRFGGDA
# UniProt P0AB24: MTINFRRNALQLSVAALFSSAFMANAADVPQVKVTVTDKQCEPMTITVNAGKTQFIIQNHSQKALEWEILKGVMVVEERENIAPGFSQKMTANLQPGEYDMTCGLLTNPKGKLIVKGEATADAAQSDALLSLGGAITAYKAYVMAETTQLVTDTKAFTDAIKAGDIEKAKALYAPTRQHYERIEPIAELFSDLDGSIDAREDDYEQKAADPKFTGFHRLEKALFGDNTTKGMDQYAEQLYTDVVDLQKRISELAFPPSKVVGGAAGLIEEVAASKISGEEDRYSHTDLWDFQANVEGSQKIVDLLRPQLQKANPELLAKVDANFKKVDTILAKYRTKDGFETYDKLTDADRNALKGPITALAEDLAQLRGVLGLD
# UniProt P0AAS7: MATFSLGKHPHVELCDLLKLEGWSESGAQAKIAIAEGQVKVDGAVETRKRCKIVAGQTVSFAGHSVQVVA
# UniProt P0ACL7: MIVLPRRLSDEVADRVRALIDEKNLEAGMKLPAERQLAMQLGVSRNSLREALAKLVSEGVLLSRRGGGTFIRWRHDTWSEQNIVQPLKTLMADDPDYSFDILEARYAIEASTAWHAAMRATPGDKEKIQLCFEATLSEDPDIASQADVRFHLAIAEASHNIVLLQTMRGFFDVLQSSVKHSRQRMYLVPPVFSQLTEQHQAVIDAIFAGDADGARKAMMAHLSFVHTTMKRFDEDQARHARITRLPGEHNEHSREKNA
# UniProt P0ACW6: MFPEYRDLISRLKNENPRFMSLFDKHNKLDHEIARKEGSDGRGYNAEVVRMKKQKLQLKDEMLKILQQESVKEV
# UniProt P0A9U6: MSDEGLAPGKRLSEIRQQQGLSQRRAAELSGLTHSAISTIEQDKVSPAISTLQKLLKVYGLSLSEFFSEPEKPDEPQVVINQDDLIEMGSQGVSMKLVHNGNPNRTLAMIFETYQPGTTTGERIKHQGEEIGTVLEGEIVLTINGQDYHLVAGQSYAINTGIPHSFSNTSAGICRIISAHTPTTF
# UniProt P0ABF6: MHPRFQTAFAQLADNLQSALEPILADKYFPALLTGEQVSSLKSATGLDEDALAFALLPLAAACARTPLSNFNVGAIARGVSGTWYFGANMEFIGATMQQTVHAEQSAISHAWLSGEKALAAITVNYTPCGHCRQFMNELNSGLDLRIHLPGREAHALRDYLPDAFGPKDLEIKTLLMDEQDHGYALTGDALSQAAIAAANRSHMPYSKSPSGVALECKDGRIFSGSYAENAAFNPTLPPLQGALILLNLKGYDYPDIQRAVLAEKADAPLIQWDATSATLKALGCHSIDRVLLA
# UniProt P0A9T4: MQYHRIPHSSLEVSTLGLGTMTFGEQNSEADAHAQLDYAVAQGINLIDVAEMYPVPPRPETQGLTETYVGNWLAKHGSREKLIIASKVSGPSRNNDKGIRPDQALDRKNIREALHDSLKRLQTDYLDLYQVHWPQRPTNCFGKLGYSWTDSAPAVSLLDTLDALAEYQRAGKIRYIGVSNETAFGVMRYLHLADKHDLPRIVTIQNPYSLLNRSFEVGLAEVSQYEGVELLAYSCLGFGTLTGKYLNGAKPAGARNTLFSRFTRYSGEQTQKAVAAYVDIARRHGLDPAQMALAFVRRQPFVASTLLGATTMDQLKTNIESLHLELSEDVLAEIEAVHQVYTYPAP
# UniProt P0ABL3: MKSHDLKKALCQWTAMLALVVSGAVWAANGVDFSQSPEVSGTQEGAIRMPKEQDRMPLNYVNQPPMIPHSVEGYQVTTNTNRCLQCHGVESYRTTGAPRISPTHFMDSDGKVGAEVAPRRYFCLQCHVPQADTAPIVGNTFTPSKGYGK
# UniProt P0ACP7: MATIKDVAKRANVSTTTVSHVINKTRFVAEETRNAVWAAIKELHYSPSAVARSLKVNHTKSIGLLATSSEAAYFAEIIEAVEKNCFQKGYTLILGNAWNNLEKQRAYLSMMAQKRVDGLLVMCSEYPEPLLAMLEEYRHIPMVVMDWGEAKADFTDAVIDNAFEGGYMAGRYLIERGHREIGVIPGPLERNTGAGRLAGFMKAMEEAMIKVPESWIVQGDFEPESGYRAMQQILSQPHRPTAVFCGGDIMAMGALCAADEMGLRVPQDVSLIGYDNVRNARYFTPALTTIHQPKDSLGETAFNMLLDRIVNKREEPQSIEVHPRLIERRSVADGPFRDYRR
# UniProt P0AAB8: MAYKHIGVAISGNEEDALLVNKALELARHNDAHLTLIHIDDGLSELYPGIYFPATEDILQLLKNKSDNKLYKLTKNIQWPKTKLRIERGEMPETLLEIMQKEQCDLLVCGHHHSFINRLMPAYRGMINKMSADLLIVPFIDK
# Some of the results follow. Small differences around the control level are noise.
# Compound: CC1(C)S[C@@H]2[C@H](NC(=O)[C@H](N)c3ccccc3)C(=O)N2[C@H]1C(=O)O [ampicillin]
# Assay: log2 fold change of tryptic peptide abundance, ligand vs vehicle (limited proteolysis) (log2 ratio); higher = more trypsin-susceptible (destabilized)
# Settings: ligand concentration: 10 uM; sample: E. coli crude lysate
row,Target,log2 fold change
1,"UniProt P0ACL0 (peptide sequence: RAIIENSR, peptide start residue: 193)",0.671
2,"UniProt P0A9U1 (peptide sequence: FFSGVYGLR, peptide start residue: 425)",-0.671
3,"UniProt P0AA39 (peptide sequence: DTSGVLLVAK, peptide start residue: 146)",0.464
4,"UniProt P0A9P6 (peptide sequence: NATLEVAEALER, peptide start residue: 256)",0.196
5,"UniProt P0AB24 (peptide sequence: FTGFHRLEK, peptide start residue: 213)",0.808
6,"UniProt P0AAS7 (peptide sequence: HPHVELCDLLKLEGWSESGAQAK, peptide start residue: 9)",0.236
7,"UniProt P0ACL7 (peptide sequence: FDEDQAR, peptide start residue: 232)",-0.117
8,"UniProt P0ACW6 (peptide sequence: FMSLFDK, peptide start residue: 19)",-0.155
9,"UniProt P0A9U6 (peptide sequence: QQQGLSQR, peptide start residue: 17)",-0.103
10,"UniProt P0ABF6 (peptide sequence: SPSGVALECK, peptide start residue: 209)",-0.286
11,"UniProt P0A9T4 (peptide sequence: EKLIIASK, peptide start residue: 80)",-0.206
12,"UniProt P0ABL3 (peptide sequence: ISPTHFMDSDGK, peptide start residue: 100)",0.0796
13,"UniProt P0ACP7 (peptide sequence: NAVWAAIK, peptide start residue: 34)",-0.132
14,"UniProt P0AAB8 (peptide sequence: NIQWPKTK, peptide start residue: 76)",-0.184
